Laboratory results published in US20240390459A1, “ANTI-DEPRESSION AND ANTI-ANXIETY APPLICATION OF POLYPEPTIDE AND COMPLEX” (SHENZHEN CHENYANG BIOLOGICAL TECHNOLOGY CO., LTD, priority 2021, published 2024).
No constants are given. Whether binding was seen depends on the method and setting. In cells and extracts the contact can be indirect. Some binding calls cover weakened binding; strength is not graded here.

Sequences of proteins named here, by UniProt entry; tags and fusion partners are left off. A change or cut given only in a name is not applied to a line headed by its entry. Residues count along the entry.
UniProt Q61616: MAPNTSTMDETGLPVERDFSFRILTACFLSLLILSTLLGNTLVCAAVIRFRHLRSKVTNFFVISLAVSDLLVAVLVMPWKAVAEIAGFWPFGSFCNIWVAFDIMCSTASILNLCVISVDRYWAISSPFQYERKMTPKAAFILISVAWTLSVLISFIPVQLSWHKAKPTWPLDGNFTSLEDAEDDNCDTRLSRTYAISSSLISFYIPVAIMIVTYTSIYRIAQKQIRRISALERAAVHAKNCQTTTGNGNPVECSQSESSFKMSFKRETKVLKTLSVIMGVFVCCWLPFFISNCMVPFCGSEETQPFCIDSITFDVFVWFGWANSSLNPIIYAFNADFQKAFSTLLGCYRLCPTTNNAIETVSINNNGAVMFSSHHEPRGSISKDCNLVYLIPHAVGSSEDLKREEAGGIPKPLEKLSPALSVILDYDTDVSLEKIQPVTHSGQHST
GST fusion protein containing the CT region of 5-HT2AR (GST-5HT2AR-CT) (P28223, residues 385-471): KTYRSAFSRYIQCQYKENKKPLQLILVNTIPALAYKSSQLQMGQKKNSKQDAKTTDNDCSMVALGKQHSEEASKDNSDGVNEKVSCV
GST fusion protein containing a DV region of 5-HT2AR (GST-5HT2AR-DV) (P28223, residues 442-471): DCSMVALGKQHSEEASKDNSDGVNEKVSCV
UniProt P35363: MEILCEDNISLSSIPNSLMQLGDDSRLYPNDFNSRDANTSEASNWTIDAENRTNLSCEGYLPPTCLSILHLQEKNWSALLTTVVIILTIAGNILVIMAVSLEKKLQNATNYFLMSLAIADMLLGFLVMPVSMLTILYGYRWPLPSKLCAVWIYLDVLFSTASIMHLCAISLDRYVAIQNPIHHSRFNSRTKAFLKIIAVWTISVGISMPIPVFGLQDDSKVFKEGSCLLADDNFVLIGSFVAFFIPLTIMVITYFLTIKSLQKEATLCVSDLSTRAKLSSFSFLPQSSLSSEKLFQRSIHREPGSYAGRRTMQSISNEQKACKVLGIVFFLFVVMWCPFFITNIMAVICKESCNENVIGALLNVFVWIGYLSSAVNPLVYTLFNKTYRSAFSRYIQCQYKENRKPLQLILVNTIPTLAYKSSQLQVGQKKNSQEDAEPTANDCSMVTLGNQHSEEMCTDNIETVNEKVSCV

Key:
[1] = biological target: Dopamine D1 receptor (D1R), endogenous, from mouse hippocampus tissue (mouse) (UniProt Q61616); assay: GST pulldown from mouse hippocampus extract, Western blot
[2] = biological target: Dopamine D1 receptor (D1R), endogenous, from mouse hippocampus tissue (mouse) (UniProt Q61616); assay: co-immunoprecipitation from hippocampus of CRS, CMS and CSDS mouse models, Western blot
[3] = biological target: Dopamine D1 receptor (D1R), endogenous, from mouse hippocampus tissue (mouse) (UniProt Q61616); assay: co-immunoprecipitation from mouse hippocampus tissue with anti-5-HT2AR antibody, Western blot for D1R

Row | binding [1] | binding [2] | binding [3] | Substance
1 | binds | – | – | GST fusion protein containing a DV region of 5-HT2AR (GST-5HT2AR-DV) (from UniProt P28223 442-471)
2 | binds | – | – | GST fusion protein containing the CT region of 5-HT2AR (GST-5HT2AR-CT) (from UniProt P28223 385-471)
3 | – | binds | binds | 5-HT2A receptor (5-HT2AR), endogenous, from mouse hippocampus tissue (from UniProt P35363 1-471)
